Experimental findings from PMC7592008 are described below.

Amino acid sequences for entries named in this document (tags omitted).
UniProt P40763, whole entry: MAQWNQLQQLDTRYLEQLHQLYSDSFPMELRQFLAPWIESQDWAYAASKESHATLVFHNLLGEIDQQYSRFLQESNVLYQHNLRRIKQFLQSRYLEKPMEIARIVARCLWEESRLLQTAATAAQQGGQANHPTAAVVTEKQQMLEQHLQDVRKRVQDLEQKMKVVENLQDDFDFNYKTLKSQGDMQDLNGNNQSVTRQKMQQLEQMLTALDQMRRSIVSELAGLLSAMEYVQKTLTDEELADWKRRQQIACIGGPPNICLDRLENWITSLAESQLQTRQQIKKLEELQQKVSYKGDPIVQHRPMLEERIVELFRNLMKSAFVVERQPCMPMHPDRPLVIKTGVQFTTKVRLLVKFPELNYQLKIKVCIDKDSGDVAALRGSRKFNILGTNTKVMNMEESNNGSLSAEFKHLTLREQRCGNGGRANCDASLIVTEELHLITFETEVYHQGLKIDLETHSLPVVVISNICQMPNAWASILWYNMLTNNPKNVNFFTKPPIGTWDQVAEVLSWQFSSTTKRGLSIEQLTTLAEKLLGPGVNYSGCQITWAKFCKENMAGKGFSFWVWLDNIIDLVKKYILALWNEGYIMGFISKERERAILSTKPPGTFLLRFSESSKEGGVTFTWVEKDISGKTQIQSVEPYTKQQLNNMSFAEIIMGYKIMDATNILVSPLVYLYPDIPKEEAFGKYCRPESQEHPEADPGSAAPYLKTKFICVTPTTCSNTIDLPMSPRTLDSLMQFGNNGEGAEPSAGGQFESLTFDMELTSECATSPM

The data set deals with STAT3 (UniProt P40763). As to the kind of experiment: EMSA supershift. The settings on record: anti-STAT3 antibody, nuclear extract, room temperature; nuclear extract with biotin-labeled probe, 20 min at room temperature, 4% native polyacrylamide gel; salt and pH not stated; protein in an extract; label: biotin. (In general: In EMSA bound probe runs differently from free probe, usually more slowly.)

The exact form of at least one protein or probe is not confirmed. Where cells or extracts were used, other partners may take part.

Consider “AGCGCAGGTGCCCTCTGGCCGGGAAGTACTTCACCAT (double strand) [MLAA-34 promoter STAT3 probe (wt)]”, for which the binding result was “binds”.
